In paper PMC3390409 one finds binding data, which are given here for one substance.

Protein sequences, listed by entry. Tags and fused reporters are not part of them.
UniProt P30260: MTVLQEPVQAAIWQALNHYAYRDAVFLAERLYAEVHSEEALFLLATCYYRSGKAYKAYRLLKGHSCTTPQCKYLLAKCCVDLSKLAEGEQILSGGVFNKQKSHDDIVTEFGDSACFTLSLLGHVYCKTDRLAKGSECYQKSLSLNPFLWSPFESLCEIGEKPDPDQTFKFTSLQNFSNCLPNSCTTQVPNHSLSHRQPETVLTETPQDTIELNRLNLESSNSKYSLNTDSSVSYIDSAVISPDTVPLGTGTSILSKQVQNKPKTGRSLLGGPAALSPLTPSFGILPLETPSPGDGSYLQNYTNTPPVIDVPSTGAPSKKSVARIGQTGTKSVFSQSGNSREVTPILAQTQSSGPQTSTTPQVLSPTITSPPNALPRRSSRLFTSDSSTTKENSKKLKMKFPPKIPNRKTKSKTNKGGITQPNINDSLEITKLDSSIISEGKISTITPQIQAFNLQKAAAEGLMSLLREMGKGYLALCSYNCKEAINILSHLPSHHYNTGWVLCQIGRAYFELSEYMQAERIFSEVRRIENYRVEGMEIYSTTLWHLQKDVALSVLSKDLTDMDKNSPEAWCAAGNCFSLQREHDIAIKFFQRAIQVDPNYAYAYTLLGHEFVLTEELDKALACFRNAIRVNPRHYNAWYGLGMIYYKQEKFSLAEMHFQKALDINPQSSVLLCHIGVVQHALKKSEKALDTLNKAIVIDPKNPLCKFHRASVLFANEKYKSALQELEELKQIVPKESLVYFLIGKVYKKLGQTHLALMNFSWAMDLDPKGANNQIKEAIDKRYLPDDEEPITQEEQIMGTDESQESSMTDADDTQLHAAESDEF
UniProt P16790: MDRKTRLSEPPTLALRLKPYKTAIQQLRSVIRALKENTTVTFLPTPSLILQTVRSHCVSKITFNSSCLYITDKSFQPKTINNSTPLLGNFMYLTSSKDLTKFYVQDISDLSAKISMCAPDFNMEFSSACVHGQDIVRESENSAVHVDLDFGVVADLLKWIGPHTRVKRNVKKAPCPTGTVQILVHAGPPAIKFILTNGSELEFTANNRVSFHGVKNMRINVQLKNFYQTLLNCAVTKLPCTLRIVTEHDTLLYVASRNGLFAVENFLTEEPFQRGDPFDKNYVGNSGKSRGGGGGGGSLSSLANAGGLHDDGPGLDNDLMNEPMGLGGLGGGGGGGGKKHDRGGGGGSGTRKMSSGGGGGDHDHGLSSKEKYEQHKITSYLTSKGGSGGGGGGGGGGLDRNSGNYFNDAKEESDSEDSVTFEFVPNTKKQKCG

Results are given in words; binding and its absence hold for the method and conditions named. Binding seen in cells or lysates may run through a third protein.

The target of the experiment is APC3 (anaphase-promoting complex subunit 3) (human (endogenous in MRC-5 and 293T)) (UniProt P30260). In words: co-IP; lysates of MRC-5 infected with viruses carrying native (untagged) UL21a alleles or the UL21a deletion, 20-24 hpi, with or without 10 µM MG132; APC3 antibody on protein A Dynabeads; 0.5% NP-40, 50 mM Tris-Cl pH 8.0, 125 mM NaCl; immunoblot.

“pUL44 (viral DNA polymerase accessory factor UL44) (from UniProt P16790 1-433)”: the binding result is reported as “no binding”.
